Reference: PMC5349910, “Discovery of BPR1K871, a quinazoline based, multi-kinase inhibitor for the treatment of AML and solid tumors: Rational design, synthesis, in vitro and in vivo evaluation” (Oncotarget, 2016)

Experiments:
Format in all cases: cell-based
CL-97 cells = experiment: Anti-proliferative activity, CL-97; conditions: CL97; Human Lung Cancer; supplement values ± SEM
H1975 cells = experiment: Anti-proliferative activity, H1975; conditions: Homo sapiens, NCI-H1975; NSCLC-EGFR LR/TM; supplement values ± SEM
Mia-PaCa2 cells = experiment: Anti-proliferative activity, Mia-PaCa2; conditions: Homo sapiens, MIA PaCa-2, Human Pancreatic Cancer; supplement values ± SEM
H2228 cells = experiment: Anti-proliferative activity, H2228; conditions: Homo sapiens, NCI-H2228; NSCLC-ALK; supplement values ± SEM
HCT-116 cells = experiment: Anti-proliferative activity, HCT-116; conditions: Human Colon Cancer, supplement values ± SEM

## CO[C@@H]1[C@H](N(C)C(=O)c2ccccc2)C[C@H]2O[C@]1(C)n1c3ccccc3c3c4c(c5c6ccccc6n2c5c31)C(=O)NC4 [PKC412]
CL-97 cells
  EC50: 0.916 µM
H1975 cells
  EC50: 0.517 µM
Mia-PaCa2 cells
  EC50: 0.995 µM
H2228 cells
  EC50: 0.609 µM
HCT-116 cells
  EC50: 0.482 µM
